Assay results: patent publication US5916908A, “Pharmaceutical pyrazole compositions useful as inhibitors of protein kinases” (COR Therapeutics, Inc., priority 1995, dated 1999)

System: HR5-βR cells
Assay: inhibition of cell proliferation under normal tissue culture conditions, HR5-βR

CN[C@@H]1C[C@H]2O[C@@](C)([C@@H]1OC)n1c3ccccc3c3c4c(c5c6ccccc6n2c5c31)C(=O)NC4 [Staurosporin]
HR5-βR growth inhibition compared with inhibition of PDGFR phosphorylation: lower concentrations than those required to inhibit PDGFR phosphorylation
